According to patent publication US20050164186, “Alteration of restriction endonuclease specificity by genetic selection” (published 2005):

Legend:
Assay in all cases: enzyme reaction in vitro
[1] = system: T1, BstYI wild-type (Bacillus stearothermophilus); conditions: similar proficiency on all RGATCY sites; 60 C; purified recombinant protein; label: radiolabel; only the site is given
T1 sequence: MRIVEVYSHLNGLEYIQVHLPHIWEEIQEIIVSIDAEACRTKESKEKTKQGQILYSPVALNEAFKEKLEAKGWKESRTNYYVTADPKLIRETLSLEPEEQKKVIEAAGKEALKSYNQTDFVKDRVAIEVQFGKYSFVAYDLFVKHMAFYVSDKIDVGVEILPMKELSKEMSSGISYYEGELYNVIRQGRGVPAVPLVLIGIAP

[2] = system: T2, BstYI NN1 (K133N/S172N) (Bacillus stearothermophilus); conditions: purified recombinant protein, only the site is given
T2 sequence: T1 sequence with K133N, S172N

[3] = system: T3, BstYI clone A1c Q28H,S172amber (Gln by suppression),Y176C (Bacillus stearothermophilus); conditions: preference for AGATCT; 10 mM MgCl2; protein in an extract; only the site is given
T3 sequence: T1 sequence with Q28H, S172Q, Y176C

[4] = system: T4, BstYI clone 9 R2opal (Trp inserted at low frequency),K49R,K87R,K133N (Bacillus stearothermophilus); conditions: preference for AGATCT; 10 mM MgCl2; protein in an extract; only the site is given
T4 sequence: T1 sequence with R2W, K49R, K87R, K133N

AGATCT (double strand) [AGATCT site, 60 bp substrate]
activity on this sequence [1]: active

AGATCC (double strand) [AGATCC/GGATCT site, 60 bp substrate]
activity on this sequence [1]: active

GGATCC (double strand) [GGATCC site, 60 bp substrate]
activity on this sequence [1]: active
activity on this sequence ([2]; cleavage not detected, 60 C, label: radiolabel): not active

AGATCT (double strand) [pUCAdenoXba AGATCT (BglII) sites]
activity on this sequence [3]: active
activity on this sequence [4]: active
activity on this sequence ([2]; BglII-like pattern on plasmid, 10 mM MgCl2, 55 C): active

Changes are numbered by the printed parent chain. Where a protein sequence is shown, tags need not be part of it. For some of these results: The exact form of at least one protein or probe is not confirmed. For some of these results: A negative result means that nothing was seen under these conditions.
